# Screening data

By UniProt entry, the sequences of proteins in these tests, tags left out.
UniProt P04637, whole entry, target on record: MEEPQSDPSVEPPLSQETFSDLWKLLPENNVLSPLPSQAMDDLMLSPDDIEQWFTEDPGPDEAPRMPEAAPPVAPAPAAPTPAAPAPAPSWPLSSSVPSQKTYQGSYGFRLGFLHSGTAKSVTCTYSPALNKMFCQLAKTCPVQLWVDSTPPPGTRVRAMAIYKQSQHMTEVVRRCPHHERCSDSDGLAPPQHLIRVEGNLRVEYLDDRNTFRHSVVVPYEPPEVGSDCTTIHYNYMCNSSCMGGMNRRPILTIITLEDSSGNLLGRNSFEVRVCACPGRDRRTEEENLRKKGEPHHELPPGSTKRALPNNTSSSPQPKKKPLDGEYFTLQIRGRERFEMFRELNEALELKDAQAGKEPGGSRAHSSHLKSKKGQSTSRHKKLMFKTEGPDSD

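Curve-fitted potency for raising eGFP-delta133p53alpha fluorescence in NCI-H358 cells after a 24-hour treatment. The dilution series runs from about 7.7e-06 to 290 µM in 23 concentration columns. Potency, read at half-maximal effect from the fitted activation curve; lower values mean a more potent compound. Calls follow the dose-curve shape: a well-fitted activation curve with a large enough effect is active, and small, poorly fitted or top-dose-only effects are inconclusive.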

Values are in nM. Every entry below has the call inconclusive. Only part of the assay is shown, chiefly results filed as inconclusive. Potencies fitted to partial, single-point or poorly fitting curves are rough.

SMILES | fitted potency (nM) | remark
C=C1CC[C@@H](O)[C@]2(C)CC[C@H]3C(=C)C(=O)O[C@@H]3[C@@H]12 | 8492 | activator, single point
CCOC(=O)C1=C(N)Oc2ccc(Br)cc2C1C(C#N)C(=O)OCC (configuration not stated) | 4324 | activator, partial curve, poor fit
COc1cc(C(=O)N2CC[C@@H](O)[C@@H](N)C2)cc2nc(-c3cc4ccccc4n3CC3CC3)n(C)c12 | 683.6 | activator, full curve, poor fit
O=C1NC(=O)/C(=C/c2cccc(C(F)(F)F)c2)S1 | 1694 | activator, full curve, poor fit
CC1(C)CCC(C)(C)c2cc3c(cc21)Sc1ccccc1N=C3c1ccc(C(=O)O)cc1 | 37932 | activator, single point
OC/C=C/c1ccc(O[C@@H]2O[C@H](CO)[C@@H](O)[C@H](O)[C@H]2O)cc1 | 11725 | activator, single point
CC1(C)CCC2=C(O1)c1ccccc1C(=O)C2=O | 37932 | activator, single point
CCCCOc1ccc(S(=O)(=O)n2c(C)nc3ccccc32)cc1 | 6573 | activator, partial curve, poor fit
O=C(Nc1ccncc1)C(=O)c1cn(Cc2ccc(Cl)cc2)c2ccccc12 | 76.9 | activator, full curve, poor fit
Cc1c(F)ccc(C(=O)Nc2cc([N+](=O)[O-])ccc2N2CCN(C)CC2)c1Cl | 27273 | activator, single point
C/C=C/C=C/C(O)=C1/C(=O)[C@]2(C)C3/C(=C(O)/C=C/C=C/C)C(=O)C4(C)C1[C@]1(C)O[C@@]4(O)[C@@]3(C)O[C@@]12O | 16511 | activator, single point
O=C1NCc2c1c1c3ccccc3[nH]c1c1[nH]c3ccccc3c21 | 26854 | activator, single point
C=CC(=O)Nc1cc(Nc2ncc(Cl)c(-c3c[nH]c4ccccc34)n2)c(OC)cc1N(C)CCN(C)C | 19011 | activator, partial curve, poor fit
Cc1c[nH]c2ncnc(N3CCC(CN)(C(=O)Nc4cccc(OC(=O)N(C)C)c4)CC3)c12 | 4776 | activator, single point
C=C1C(=O)O[C@H]2[C@H]1CC/C(C)=C/CC[C@@]1(C)O[C@@H]21 | 33807 | activator, partial curve, poor fit
CCc1cccc2c3c([nH]c12)C(CC)(CC(=O)O)OCC3 (configuration not stated) | 1086 | activator, full curve, poor fit
CCC(=O)N1CCN(c2ccc(-n3c(=O)ccc4cnc5ccc(-c6cnc7ccccc7c6)cc5c43)cc2C(F)(F)F)CC1 | 1550 | activator, full curve, poor fit
C[C@@H]1Cc2c(Cl)cc(C(=O)N[C@@H](Cc3ccccc3)C(=O)O)c(O)c2C(=O)O1 | 26249 | activator, single point
NC(=O)c1noc([C@H](CCCC2CCCCC2)CC(=O)NO)n1 | 8.6 | activator, full curve, poor fit
CS(=O)(=O)CCNCc1ccc(-c2ccc3ncnc(Nc4ccc(OCc5cccc(F)c5)c(Cl)c4)c3c2)o1 | 34693 | activator, partial curve, poor fit
N#CCNC(=O)c1ccc(-c2ccnc(Nc3ccc(N4CCOCC4)cc3)n2)cc1 | 43239 | activator, single point
NC(=O)c1nc(Nc2ccccc2)sc1NC(=O)C1CCCCC1 | 6012 | activator, partial curve, poor fit
CN(C)CCCN1c2ccccc2CCc2ccc(Cl)cc21 | 15497 | activator, partial curve
CNCc1ccc(-c2cc(-c3nc(-c4ccc(S(=O)(=O)C(C)C)cc4)cnc3N)on2)cc1 | 33807 | activator, single point
CC(C)(C)OC(=O)Nc1ccc(-c2cc(C(=O)NCCCCCCC(=O)NO)no2)cc1 | 34334 | activator, partial curve, poor fit
Cc1cnc(Nc2ccc(CN3CCOCC3)cc2)nc1Nc1cccc(S(=O)(=O)NC(C)(C)C)c1 | 61.1 | activator, full curve, poor fit
COC(=O)[C@H]1[C@H]2C[C@@H]3c4[nH]c5cc(OC)ccc5c4CCN3C[C@H]2C[C@@H](OC(=O)c2cc(OC)c(OC)c(OC)c2)[C@@H]1OC | 6300 | activator, partial curve
CNC(=O)c1ccc2c(C(=Nc3cccc(CN(C)C)c3)c3ccccc3)c(O)[nH]c2c1 | 43239 | activator, single point
C/C=C/C1=CC2=C(CO1)C(=O)C(C)(O)C(OC(=O)c1c(C)cc(OC)cc1O)C2 (configuration not stated) | 23395 | activator, partial curve, poor fit
NC(=O)c1c(OCc2c(F)cc(Br)cc2F)nsc1NC(=O)NCCCCN1CCCC1 | 5358 | activator, single point
Clc1ccc2c(N3CCN(CCCN4CCN(c5ccnc6cc(Cl)ccc56)CC4)CC3)ccnc2c1 | 18822 | activator, single point
CCCCCCCCCCCCCC(=O)N[C@H](CO)[C@H](O)c1ccc([N+](=O)[O-])cc1 | 43239 | activator, single point
CCOC(=O)c1c(CSc2ccccc2)n(C)c2cc(Br)c(O)c(CN(C)C)c12 | 43239 | activator, single point
CC(=O)[C@H]1CCC2C3CC=C4C[C@@H](OS(=O)(=O)O)CC[C@]4(C)C3CC[C@@]21C (some centres not stated) | 13.5 | activator, full curve, poor fit
Nc1ncnc2c1c(-c1cccc(OCc3ccccc3)c1)cn2C1CC(CN2CCCC2)C1 (configuration not stated) | 37932 | activator, single point
CC(=O)N(C)C1(c2ccccc2)CCN(CCC[C@]2(c3ccc(Cl)c(Cl)c3)CCCN(C(=O)c3ccccc3)C2)CC1 | 21331 | activator, partial curve, poor fit
Cc1c(NC(=O)OCC2COCCN2)cn2ncnc(Nc3ccc4c(cnn4Cc4cccc(F)c4)c3)c12 (configuration not stated) | 37932 | activator, single point
O=c1[nH]c2ccccc2n1CCCN1CCC(n2c(=O)[nH]c3cc(Cl)ccc32)CC1 | 4901 | activator, partial curve, poor fit
Cc1ccccc1/C=C/C1=NCCN1 | 13459 | activator, partial curve, poor fit
COc1cc(O)c2c(c1)C1OC1C[C@H](O)[C@H](O)C(=O)C=CC[C@H](C)OC2=O (some centres not stated) | 43239 | activator, partial curve, poor fit
CCOc1cc(CC(=O)N[C@@H](CC(C)C)c2ccccc2N2CCCCC2)ccc1C(=O)O | 43239 | activator, single point
Nc1ccc2c3c(cccc13)C(=O)NC2=O | 37932 | activator, single point

The first 3 entries again:

With C=C1CC[C@@H](O)[C@]2(C)CC[C@H]3C(=C)C(=O)O[C@@H]3[C@@H]12 the assay gave fitted potency 8492 nM (activator, single point).
With CCOC(=O)C1=C(N)Oc2ccc(Br)cc2C1C(C#N)C(=O)OCC (configuration not stated) the assay gave fitted potency 4324 nM (activator, partial curve, poor fit).
With COc1cc(C(=O)N2CC[C@@H](O)[C@@H](N)C2)cc2nc(-c3cc4ccccc4n3CC3CC3)n(C)c12 the assay gave fitted potency 683.6 nM (activator, full curve, poor fit).

From PubChem BioAssay record AID2060322 (NCATS, 2025).